The list shows only some results of the screen, not a fair sample: it gathers tests that were run many times, whatever their T/C, doses with no T/C, and many T/C values between a quarter and a half above the control. Further doses and runs are listed elsewhere. T/C gives the treated animals as a percentage of the vehicle group. Some entries give survivors of the animals treated and no T/C: the source holds a T/C of zero for them, seemingly a mark for toxic or unscored doses. Some doses without a T/C left all or most animals alive at the check, yet need not have been tolerated: the source hardly ever lists a survival T/C far under the control, and the zero likely stands for such cases as well. Counts of survivors are from the toxicity check (mostly the fifth day) where no day follows; animals may have died later. Schedules are NCI's codes, taken here to give the interval after Q, in days (D) or hours (H), and the number of doses after X. Some doses were run more than once; the values are given in rising order. Some schedule codes hold Z or #, which are not explained here. For survival time, the PubChem record calls one and a half times the control and up active, and a quarter to a half above the control has no call in these data; cut-offs in other NCI protocols can differ.

The subject of this assay is L1210 leukemia ip in BDF1 mice, survival T/C. Kind of assay: NCI In Vivo Anticancer Drug Screen. Data for tumor model L1210 Leukemia (intraperitoneal) in B6D2F1 (BDF1) mice. The note with it: T/C endpoint: mean survival time, higher T/C = longer survival.
[1] abbreviates: dose: 100.0 mg/kg/injection, schedule: Q01DX009 (ip), vehicle: Klucel (hydroxypropylcellulose) (HPC).
[2] abbreviates: dose: 400.0 mg/kg/injection, schedule: Q04DX003 (ip), vehicle: Klucel (hydroxypropylcellulose) (HPC).
Where [3] appears, read: dose: 200.0 mg/kg/injection, schedule: Q01DX009 (ip), vehicle: Klucel (hydroxypropylcellulose) (HPC).
The mark [4] stands for this setting: dose: 400.0 mg/kg/injection, schedule: Q04DX002 (ip), vehicle: saline with Tween-80.
[5] abbreviates: dose: 400.0 mg/kg/injection, schedule: Q01DX009 (ip), vehicle: Klucel (hydroxypropylcellulose) (HPC).
The mark [6] stands for this setting: dose: 200.0 mg/kg/injection, schedule: Q04DX002 (ip), vehicle: saline.
Setting [7] is: dose: 400.0 mg/kg/injection, schedule: Q04DX002 (ip), vehicle: saline.
Setting [8] is: dose: 300.0 mg/kg/injection, schedule: Q01DX001 (ip), vehicle: saline.
The mark [9] stands for this setting: dose: 400.0 mg/kg/injection, schedule: Q04DX003 (ip), vehicle: other.
[10] abbreviates: dose: 400.0 mg/kg/injection, schedule: Q04DX003 (ip), vehicle: saline with Tween-80.
The mark [11] stands for this setting: dose: 0.44 mg/kg/injection, schedule: Q01DX009 (ip), vehicle: saline.
The mark [12] stands for this setting: dose: 2.5 mg/kg/injection, schedule: Q01DX001 (ip), vehicle: saline.
The mark [13] stands for this setting: dose: 400.0 mg/kg/injection, schedule: Q01DX001 (ip), vehicle: saline.
[14] abbreviates: dose: 50.0 mg/kg/injection, schedule: Q01DX009 (ip), vehicle: saline.

`CC1CCCCC1OC(=O)CCN1CC1` (centres undefined): the survivor count was 5 of 6 (dose: 50.0 mg/kg/injection, schedule: Q01DX009 (ip), vehicle: Klucel (hydroxypropylcellulose) (HPC)); 1 of 6 and 2 of 6 under setting [1]; 1 of 6 (dose: 200.0 mg/kg/injection, schedule: Q04DX003 (ip), vehicle: Klucel (hydroxypropylcellulose) (HPC)); 0 of 6 under setting [2].

Consider `CCOC(=O)C(CC(C)C)NC(=O)CCCCSc1ncnc2nc[nH]c12` (centres undefined), for which the T/C (dose: 800.0 mg/kg/injection, schedule: Q01DX009 (ip), vehicle: saline with Tween-80) is 129 % of control.

Consider `COC(=O)c1cc([N+](=O)[O-])cc([N+](=O)[O-])c1O`, for which the survivor count is 3 of 3 under setting [1], 0 of 3 under setting [3] and 0 of 3 under setting [4].

Turning to `CCC/C(=N/NC(=O)C1CCCO1)c1ccccc1` (centres undefined), the survivor count was 0 of 6 under setting [3] and 0 of 6 under setting [5].

Regarding `C[S+](C)C12CC3CC(CC(C3)C1)C2`, the survivor count reads like this: under setting [6], 0 of 3; under setting [7], 1 of 3.

As for `Nc1c(Cl)cc2c(c1Br)C(=O)c1ccccc1C2=O`, for the setting “dose: 200.0 mg/kg/injection, schedule: Q01DX001 (ip), vehicle: Klucel (hydroxypropylcellulose) (HPC)”, the survivor count is reported as 3 of 3.

For the molecule `Cc1noc(NC(=O)Nc2ccccc2C(F)(F)F)c1C`, under setting [5], the survivor count was 3 of 3.

Consider `CC#CC#CC(=O)c1ccccc1`, for which the survivor count was 0 of 6 (dose: 75.0 mg/kg/injection, schedule: Q01DX001 (ip), vehicle: saline); 0 of 6 (dose: 150.0 mg/kg/injection, schedule: Q01DX001 (ip), vehicle: saline); 0 of 6 under setting [8].

For `COS(=O)(=O)c1ccc(Cl)c([N+](=O)[O-])c1`, the survivor count runs as follows: (dose: 3.0 mg/kg/injection, schedule: Q04DX003 (ip), vehicle: saline with Tween-80) 6 of 6; (dose: 6.25 mg/kg/injection, schedule: Q04DX003 (ip), vehicle: saline with Tween-80) 6 of 6; (dose: 12.5 mg/kg/injection, schedule: Q04DX003 (ip), vehicle: saline with Tween-80) 6 of 6; (dose: 25.0 mg/kg/injection, schedule: Q04DX003 (ip), vehicle: saline with Tween-80) 6 of 6.

On to `CC(=O)N(C)c1ccc(NC(=O)Nc2c(C)cccc2C)cc1`, for which, where the note is “dose: 100.0 mg/kg/injection, schedule: Q04DX002 (ip), vehicle: saline”, the T/C was 126 % of control.

For the molecule `c1n[nH]c2c1CCC2`, under “dose: 300.0 mg/kg/injection, schedule: Q01DX009 (ip), vehicle: saline with Tween-80”, the survivor count is listed as 3 of 6.

For the molecule `ClC1(Cl)C2C=CC=CCC21` (centres undefined), the survivor count under setting [9] is 6 of 6.

`CCNCCCNCC(Cc1ccccc1)c1ccccc1` (centres undefined): the survivor count runs as follows: under setting [6], 1 of 3; under setting [7], 0 of 3.

As to `Nc1nc(N)c2cc(NCc3ccc(Br)cc3)ccc2n1`, the survivor count runs as follows: (dose: 25.0 mg/kg/injection, schedule: Q01DX009 (ip), vehicle: saline with Tween-80) 3 of 6; (dose: 50.0 mg/kg/injection, schedule: Q04DX003 (ip), vehicle: saline) 1 of 6; (dose: 100.0 mg/kg/injection, schedule: Q04DX003 (ip), vehicle: saline) 0 of 6.

Consider `Cc1ccc(S(=O)(=O)C[n+]2ccccc2)cc1`, for which the survivor count under setting [4] is on record as 0 of 3.

For `S=C(Nc1ccccc1)Nc1ccc(NC(=S)Nc2ccccc2)cc1`, the survivor count (dose: 400.0 mg/kg/injection, schedule: Q01DX001 (ip), vehicle: saline with Tween-80) is on record as 0 of 3.

Turning to `c1ccc(NC(Nc2ccccn2)c2ccncc2)nc1`, the T/C under setting [10] is 125 % of control.

For the molecule `Cc1ccc(C(c2ccccc2)c2ccccc2)cc1C`, for the setting “dose: 200.0 mg/kg/injection, schedule: Q01DX001 (ip), vehicle: saline”, the survivor count was 6 of 6.

Turning to `COC(=O)C(CCl)NC(=O)c1ccccc1` (centres undefined), the survivor count under setting [2] was 3 of 6.

Turning to `O=C(NCCCCCCNC(=O)N1CC1)N1CC1`, the T/C reads like this: (dose: 0.29 mg/kg/injection, schedule: Q01DX009 (ip), vehicle: saline) 130 % of control; under setting [11], 138 % of control; (dose: 0.62 mg/kg/injection, schedule: Q01DX009 (ip), vehicle: saline) 148 % of control; (dose: 1.0 mg/kg/injection, schedule: Q01DX009 (ip), vehicle: saline) 141 % of control; (dose: 1.2 mg/kg/injection, schedule: Q04DX003 (ip), vehicle: saline) 134 % of control; (dose: 1.25 mg/kg/injection, schedule: Q01DX009 (ip), vehicle: saline) 129 % of control. Further, the T/C (dose: 1.7 mg/kg/injection, schedule: Q04DX003 (ip), vehicle: saline) is 139 and 148 % of control; the T/C under setting [12] was 132 and 139 % of control. In addition, the survivor count under setting [11] is on record as 6 of 6; the survivor count (dose: 1.7 mg/kg/injection, schedule: Q01DX001 (ip), vehicle: saline) was 2 of 6; the survivor count under setting [12] was 2 of 6; the survivor count (dose: 2.5 mg/kg/injection, schedule: Q01DX009 (ip), vehicle: saline) was 6 of 6; the survivor count (dose: 3.3 mg/kg/injection, schedule: Q01DX009 (ip), vehicle: saline) was 6 of 6; the survivor count (dose: 3.7 mg/kg/injection, schedule: Q01DX001 (ip), vehicle: saline) is on record as 2 of 6. Moreover, the survivor count was 3 of 6 (dose: 5.0 mg/kg/injection, schedule: Q01DX001 (ip), vehicle: saline) and 1 of 6 (dose: 10.0 mg/kg/injection, schedule: Q01DX001 (ip), vehicle: saline).

As to `CCc1cccc(CC)c1NC(=S)NN`, the survivor count (dose: 200.0 mg/kg/injection, schedule: Q04DX002 (ip), vehicle: saline with Tween-80) was 0 of 3 and the survivor count under setting [4] was 0 of 3.

For `CCC(C)C(CN)(CCCCN1CCCC1)c1cccc2ccccc12` (centres undefined), the survivor count (dose: 200.0 mg/kg/injection, schedule: Q04DX003 (ip), vehicle: saline with Tween-80) was 5 of 6 and the survivor count under setting [10] is reported as 0 of 6.

Regarding `N#CC(Cc1ccccc1)c1ccccc1` (centres undefined), under setting [13], the survivor count was 1 of 4.

Consider `Cc1csc[n+]1C`, for which, under setting [8], the survivor count is on record as 2 of 6.

Take `COC(=O)CNC(=O)C(CC(C)C)NC(=O)OCc1ccccc1` (centres undefined): the survivor count under setting [13] is given as 6 of 6.

In the case of `CN(C)CCCCl`, the survivor count reads like this: (dose: 75.0 mg/kg/injection, schedule: Q01DX009 (ip), vehicle: saline) 6 of 6; (dose: 150.0 mg/kg/injection, schedule: Q01DX009 (ip), vehicle: saline) 0 of 6; (dose: 150.0 mg/kg/injection, schedule: Q01DX Z (ip), vehicle: other) 3 of 6; (dose: 300.0 mg/kg/injection, schedule: Q04DX003 (ip), vehicle: saline) 2 of 6.

As for `O=C(CCN1CCCCC1)c1cc(Cl)ccc1Cl`, the survivor count is 3 of 3 under setting [14], 0 of 3 under setting [6] and 0 of 3 under setting [7].

For `CC1(C)CC(NC(=O)NCCCl)CC(C)(C)N1`, the survivor count under setting [14] was 4 of 6.

For `Cn1ncc2c(N)nc(-c3ccccc3)nc21`, the survivor count is 2 of 6 (dose: 200.0 mg/kg/injection, schedule: Q04DX003 (ip), vehicle: other) and 0 of 6 under setting [9].

As for `CCCCCCCCCCCCCCCCCC[n+]1ccc(C(N)=O)cc1`, the survivor count is given as 0 of 6 (dose: 200.0 mg/kg/injection, schedule: Q04DX003 (ip), vehicle: saline) and 0 of 6 (dose: 400.0 mg/kg/injection, schedule: Q04DX003 (ip), vehicle: saline).
